The supplement of paper PMC12823440, “Inhibitors supercharge kinase turnover through native proteolytic circuits” (Nature, 2025)
This is one part of the list. Hit calls seldom repeat between salt and free forms of one compound.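 In K562 cells expressing nanoluciferase-fused kinases, luminescence was recorded at 4 h intervals between 2 and 18 h, normalized as percent of control with DMSO at 100% and a positive control at 0%. A significant (2 sigma) signal drop marks a time point as decreased. The authors' rule for a hit is not shown and takes in more than the number of time points.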

Sequences of proteins named here, by UniProt entry; tags and fusion partners are left off. A change or cut given only in a name is not applied to a line headed by its entry.
UniProt Q9UBF8: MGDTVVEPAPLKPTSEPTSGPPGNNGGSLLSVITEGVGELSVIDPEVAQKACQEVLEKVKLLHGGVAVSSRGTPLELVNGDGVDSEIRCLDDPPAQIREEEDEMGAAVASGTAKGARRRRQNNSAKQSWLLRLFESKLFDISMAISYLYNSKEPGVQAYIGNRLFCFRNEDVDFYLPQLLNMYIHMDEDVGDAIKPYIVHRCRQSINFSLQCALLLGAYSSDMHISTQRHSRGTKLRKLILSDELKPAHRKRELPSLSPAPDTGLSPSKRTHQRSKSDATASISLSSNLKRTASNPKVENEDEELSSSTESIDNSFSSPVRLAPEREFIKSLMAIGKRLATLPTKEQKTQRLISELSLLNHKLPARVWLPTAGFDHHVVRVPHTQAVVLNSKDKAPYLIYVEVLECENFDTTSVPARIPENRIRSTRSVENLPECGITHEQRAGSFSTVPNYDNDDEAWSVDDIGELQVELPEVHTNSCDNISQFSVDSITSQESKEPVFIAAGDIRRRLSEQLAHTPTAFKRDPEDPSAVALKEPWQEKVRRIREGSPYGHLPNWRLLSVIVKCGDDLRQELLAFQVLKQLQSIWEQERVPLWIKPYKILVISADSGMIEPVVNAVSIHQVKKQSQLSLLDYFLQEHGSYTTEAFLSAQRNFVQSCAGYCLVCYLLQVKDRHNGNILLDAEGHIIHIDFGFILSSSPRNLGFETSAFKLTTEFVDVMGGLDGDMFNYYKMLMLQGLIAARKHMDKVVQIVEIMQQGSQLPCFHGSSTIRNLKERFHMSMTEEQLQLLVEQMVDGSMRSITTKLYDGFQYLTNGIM
UniProt P53350, whole entry: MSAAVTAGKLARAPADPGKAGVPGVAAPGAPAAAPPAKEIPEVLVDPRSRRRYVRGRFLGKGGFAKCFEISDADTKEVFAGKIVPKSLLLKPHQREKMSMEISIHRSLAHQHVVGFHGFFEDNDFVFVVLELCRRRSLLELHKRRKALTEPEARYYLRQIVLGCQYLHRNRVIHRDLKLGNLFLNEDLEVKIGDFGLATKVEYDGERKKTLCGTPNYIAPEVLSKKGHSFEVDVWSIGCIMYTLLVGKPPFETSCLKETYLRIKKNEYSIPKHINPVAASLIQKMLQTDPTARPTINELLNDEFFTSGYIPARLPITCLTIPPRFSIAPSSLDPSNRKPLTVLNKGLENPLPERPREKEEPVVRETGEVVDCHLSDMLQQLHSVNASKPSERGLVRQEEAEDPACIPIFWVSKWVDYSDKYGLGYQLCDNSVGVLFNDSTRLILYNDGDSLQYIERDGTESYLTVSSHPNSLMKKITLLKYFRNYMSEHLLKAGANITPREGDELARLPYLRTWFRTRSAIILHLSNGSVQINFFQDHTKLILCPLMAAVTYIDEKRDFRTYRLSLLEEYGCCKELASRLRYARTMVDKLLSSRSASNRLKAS
UniProt Q13131: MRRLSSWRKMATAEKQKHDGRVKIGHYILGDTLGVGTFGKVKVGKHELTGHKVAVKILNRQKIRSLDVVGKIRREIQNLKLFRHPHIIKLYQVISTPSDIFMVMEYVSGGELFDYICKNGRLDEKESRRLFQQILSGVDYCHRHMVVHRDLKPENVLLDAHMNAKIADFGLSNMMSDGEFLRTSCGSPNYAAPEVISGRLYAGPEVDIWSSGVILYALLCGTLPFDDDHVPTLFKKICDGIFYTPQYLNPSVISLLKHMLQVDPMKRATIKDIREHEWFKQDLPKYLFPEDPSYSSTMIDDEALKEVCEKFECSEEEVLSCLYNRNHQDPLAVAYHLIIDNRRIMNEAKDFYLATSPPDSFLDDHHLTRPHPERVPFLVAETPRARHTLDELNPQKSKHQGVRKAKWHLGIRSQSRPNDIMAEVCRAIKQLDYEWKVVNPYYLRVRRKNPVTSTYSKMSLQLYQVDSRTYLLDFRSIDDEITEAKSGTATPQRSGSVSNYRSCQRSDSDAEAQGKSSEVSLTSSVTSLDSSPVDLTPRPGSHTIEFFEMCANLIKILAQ
UniProt P07949, whole entry, looked up: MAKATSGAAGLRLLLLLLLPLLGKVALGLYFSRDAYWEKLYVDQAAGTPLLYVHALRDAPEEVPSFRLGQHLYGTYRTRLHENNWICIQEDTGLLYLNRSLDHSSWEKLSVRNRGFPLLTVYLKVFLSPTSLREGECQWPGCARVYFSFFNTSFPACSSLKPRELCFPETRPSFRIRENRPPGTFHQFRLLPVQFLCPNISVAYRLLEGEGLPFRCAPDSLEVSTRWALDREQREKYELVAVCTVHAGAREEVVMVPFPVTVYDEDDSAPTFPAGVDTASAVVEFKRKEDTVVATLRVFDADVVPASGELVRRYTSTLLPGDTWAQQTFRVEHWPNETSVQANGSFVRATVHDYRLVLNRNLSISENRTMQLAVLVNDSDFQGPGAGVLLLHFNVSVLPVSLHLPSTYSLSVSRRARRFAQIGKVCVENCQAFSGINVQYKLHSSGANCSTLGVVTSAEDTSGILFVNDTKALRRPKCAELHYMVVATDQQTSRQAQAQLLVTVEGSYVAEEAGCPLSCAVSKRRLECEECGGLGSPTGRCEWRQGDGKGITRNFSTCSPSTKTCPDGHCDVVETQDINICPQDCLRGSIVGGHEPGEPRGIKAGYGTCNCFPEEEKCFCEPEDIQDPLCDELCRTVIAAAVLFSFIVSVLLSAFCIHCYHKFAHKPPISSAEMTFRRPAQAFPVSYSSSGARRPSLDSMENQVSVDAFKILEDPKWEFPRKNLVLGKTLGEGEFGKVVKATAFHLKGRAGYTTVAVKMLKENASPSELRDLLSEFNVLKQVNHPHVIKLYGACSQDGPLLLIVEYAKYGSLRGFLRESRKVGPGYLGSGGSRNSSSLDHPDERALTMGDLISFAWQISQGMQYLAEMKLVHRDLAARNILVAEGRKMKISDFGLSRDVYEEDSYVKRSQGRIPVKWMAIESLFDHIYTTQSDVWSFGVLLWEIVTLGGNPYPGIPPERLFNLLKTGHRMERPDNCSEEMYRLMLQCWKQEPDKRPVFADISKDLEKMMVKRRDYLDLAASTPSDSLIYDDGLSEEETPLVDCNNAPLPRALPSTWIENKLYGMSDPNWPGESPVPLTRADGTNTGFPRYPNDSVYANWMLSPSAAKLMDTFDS
UniProt P07949, whole entry M918T, looked up: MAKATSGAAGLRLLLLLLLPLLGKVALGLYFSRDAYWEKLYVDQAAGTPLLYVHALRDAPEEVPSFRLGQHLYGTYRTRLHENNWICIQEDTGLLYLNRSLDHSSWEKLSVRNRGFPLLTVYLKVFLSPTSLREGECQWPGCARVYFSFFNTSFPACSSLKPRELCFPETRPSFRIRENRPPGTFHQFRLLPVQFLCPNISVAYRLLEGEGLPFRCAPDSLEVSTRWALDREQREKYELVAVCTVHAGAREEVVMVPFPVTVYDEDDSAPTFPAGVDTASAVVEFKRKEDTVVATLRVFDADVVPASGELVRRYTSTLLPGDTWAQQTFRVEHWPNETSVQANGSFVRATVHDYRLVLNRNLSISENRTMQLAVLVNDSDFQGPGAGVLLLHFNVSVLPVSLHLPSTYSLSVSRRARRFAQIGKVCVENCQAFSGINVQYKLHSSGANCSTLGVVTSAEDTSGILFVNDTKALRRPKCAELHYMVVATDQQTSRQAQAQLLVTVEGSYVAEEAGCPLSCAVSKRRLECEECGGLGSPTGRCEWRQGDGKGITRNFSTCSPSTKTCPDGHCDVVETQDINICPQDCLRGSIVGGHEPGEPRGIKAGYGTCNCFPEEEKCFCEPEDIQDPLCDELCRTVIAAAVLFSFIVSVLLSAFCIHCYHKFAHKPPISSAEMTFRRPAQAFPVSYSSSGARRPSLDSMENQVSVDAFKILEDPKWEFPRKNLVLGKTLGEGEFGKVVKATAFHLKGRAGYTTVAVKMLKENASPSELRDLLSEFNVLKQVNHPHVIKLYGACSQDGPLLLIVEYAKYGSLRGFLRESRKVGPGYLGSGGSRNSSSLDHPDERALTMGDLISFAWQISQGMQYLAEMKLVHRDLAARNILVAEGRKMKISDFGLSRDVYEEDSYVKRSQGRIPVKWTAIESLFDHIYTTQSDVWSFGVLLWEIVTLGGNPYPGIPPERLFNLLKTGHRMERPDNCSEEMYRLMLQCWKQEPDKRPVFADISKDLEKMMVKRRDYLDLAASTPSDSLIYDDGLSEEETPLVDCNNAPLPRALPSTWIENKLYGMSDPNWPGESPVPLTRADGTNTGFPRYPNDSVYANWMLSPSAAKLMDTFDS
UniProt Q13546: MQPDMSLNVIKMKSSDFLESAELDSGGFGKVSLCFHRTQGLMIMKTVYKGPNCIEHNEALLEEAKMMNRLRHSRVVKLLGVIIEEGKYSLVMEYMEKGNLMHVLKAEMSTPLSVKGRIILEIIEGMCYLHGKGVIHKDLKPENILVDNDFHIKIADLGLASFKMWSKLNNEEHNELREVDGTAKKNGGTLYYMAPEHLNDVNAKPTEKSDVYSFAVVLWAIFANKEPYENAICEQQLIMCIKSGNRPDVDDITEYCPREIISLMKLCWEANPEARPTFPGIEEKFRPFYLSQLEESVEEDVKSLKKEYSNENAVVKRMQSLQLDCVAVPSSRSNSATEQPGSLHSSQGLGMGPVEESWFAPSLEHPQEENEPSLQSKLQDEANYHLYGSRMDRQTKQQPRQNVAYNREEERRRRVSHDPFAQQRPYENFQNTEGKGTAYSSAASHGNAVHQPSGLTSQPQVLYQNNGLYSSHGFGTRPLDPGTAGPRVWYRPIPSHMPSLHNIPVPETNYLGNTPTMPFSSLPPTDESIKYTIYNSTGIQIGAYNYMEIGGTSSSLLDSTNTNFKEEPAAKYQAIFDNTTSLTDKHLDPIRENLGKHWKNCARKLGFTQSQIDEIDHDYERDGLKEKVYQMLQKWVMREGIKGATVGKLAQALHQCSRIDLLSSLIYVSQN
UniProt Q15418, whole entry: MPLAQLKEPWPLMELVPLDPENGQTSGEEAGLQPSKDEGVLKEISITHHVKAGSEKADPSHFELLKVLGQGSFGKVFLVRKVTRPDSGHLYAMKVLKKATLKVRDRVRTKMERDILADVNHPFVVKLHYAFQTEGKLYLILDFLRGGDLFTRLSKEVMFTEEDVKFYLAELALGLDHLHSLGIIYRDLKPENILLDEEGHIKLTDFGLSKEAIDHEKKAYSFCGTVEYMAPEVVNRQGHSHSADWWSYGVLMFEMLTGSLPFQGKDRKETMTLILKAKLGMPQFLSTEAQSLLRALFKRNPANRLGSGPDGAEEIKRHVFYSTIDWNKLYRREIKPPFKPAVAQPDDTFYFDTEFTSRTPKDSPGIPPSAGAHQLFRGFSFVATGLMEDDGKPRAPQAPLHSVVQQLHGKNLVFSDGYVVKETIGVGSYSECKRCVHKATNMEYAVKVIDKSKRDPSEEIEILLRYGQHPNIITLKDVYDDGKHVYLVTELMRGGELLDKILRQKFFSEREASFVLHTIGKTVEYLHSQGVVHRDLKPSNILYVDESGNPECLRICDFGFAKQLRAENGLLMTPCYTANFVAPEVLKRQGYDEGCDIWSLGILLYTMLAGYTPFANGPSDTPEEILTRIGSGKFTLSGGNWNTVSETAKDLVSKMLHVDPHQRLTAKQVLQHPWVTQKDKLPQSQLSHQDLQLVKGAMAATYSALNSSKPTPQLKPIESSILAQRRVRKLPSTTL

Legend:
Assay in all cases: kinase-Nluc reporter destabilization hit call (1 = scored as downregulated) (binary); higher = compound decreases kinase abundance
Details in all cases: K562; 2-18 h
[1] = target: PDPK1 (UniProt O15530)
[2] = target: PIK4CA (UniProt P42356)
[3] = target: PIK4CB (UniProt Q9UBF8)
[4] = target: PLK1 (UniProt P53350)
[5] = target: PRKAA1 (UniProt Q13131)
[6] = target: PRKCA (UniProt P17252)
[7] = target: PTK2 (UniProt Q05397)
[8] = target: PTK2B (UniProt Q14289)
[9] = target: RAF1 (UniProt P04049)
[10] = target: RAF1_S257L (clone: RAF1_mut) (UniProt P04049)
[11] = target: RET (UniProt P07949)
[12] = target: RET_M918T (clone: RET_mut) (UniProt P07949)
[13] = target: RIOK1 (UniProt Q9BRS2)
[14] = target: RIPK1 (UniProt Q13546)
[15] = target: RIPK2 (UniProt O43353)
[16] = target: ROR2 (UniProt Q01974)
[17] = target: RPS6KA1 (UniProt Q15418)
[18] = target: SPHK1 (UniProt Q9NYA1)
[19] = target: SRC (UniProt P12931)
[20] = target: STK24 (UniProt Q9Y6E0)

Measured: kinase-Nluc reporter destabilization hit call

Cn1ncc(Cl)c1-c1cc(C(=O)N[C@H](CN)Cc2ccc(F)c(F)c2)sc1Cl (10 µM)
inactive: [1] 0 | [2] 0 | [3] 0 | [4] 0 | [5] 0 | [6] 0 | [7] 0 | [8] 0 | [9] 0 | [10] 0 | [11] 0 | [12] 0 | [13] 0 | [14] 0 | [15] 0 | [16] 0 | [17] 0 | [18] 0 | [19] 0 | [20] 0

Nc1cccc(S(=O)(=O)N2CCCN(S(=O)(=O)c3ccc4c(c3)OCCO4)CC2)c1 (10 µM)
inactive: [1] 0 | [2] 0 | [3] 0 | [4] 0 | [5] 0 | [6] 0 | [7] 0 | [8] 0 | [9] 0 | [10] 0 | [11] 0 | [12] 0 | [13] 0 | [14] 0 | [15] 0 | [16] 0 | [17] 0 | [18] 0 | [19] 0 | [20] 0

O=c1ccoc2cc(O)ccc12 [7-Hydroxy-4H-chromen-4-one] (10 µM)
inactive: [1] 0 | [2] 0 | [3] 0 | [4] 0 | [5] 0 | [6] 0 | [7] 0 | [8] 0 | [9] 0 | [10] 0 | [11] 0 | [12] 0 | [13] 0 | [14] 0 | [15] 0 | [16] 0 | [17] 0 | [18] 0 | [19] 0 | [20] 0

COc1cc(N2CCC(N(C)C)CC2)ccc1Nc1ncc(Cl)c(Nc2ccccc2P(C)(C)=O)n1 (2.5 µM)
inactive: [1] 0 | [2] 0 | [3] 0 | [4] 0 | [5] 0 | [6] 0 | [7] 0 | [8] 0 | [9] 0 | [10] 0 | [11] 0 | [12] 0 | [13] 0 | [14] 0 | [15] 0 | [16] 0 | [17] 0 | [18] 0 | [19] 0 | [20] 0

CN(C)C(=O)c1ccc(S(=O)(=O)c2ccc(NC(=O)[C@@](C)(O)C(F)(F)F)c(Cl)c2)cc1 (10 µM)
inactive: [1] 0 | [2] 0 | [3] 0 | [4] 0 | [5] 0 | [6] 0 | [7] 0 | [8] 0 | [9] 0 | [10] 0 | [11] 0 | [12] 0 | [13] 0 | [14] 0 | [15] 0 | [16] 0 | [17] 0 | [18] 0 | [19] 0 | [20] 0

Cc1ccc(-c2nn(C(C)(C)CNC(=O)c3ccncc3)c3ncnc(N)c23)cc1 (2.5 µM)
inactive: [1] 0 | [2] 0 | [3] 0 | [4] 0 | [5] 0 | [6] 0 | [7] 0 | [8] 0 | [9] 0 | [10] 0 | [11] 0 | [12] 0 | [13] 0 | [14] 0 | [15] 0 | [16] 0 | [17] 0 | [18] 0 | [19] 0 | [20] 0

O[C@H]1CC[C@H](Nc2ncc3nc(Nc4c(F)cc(F)cc4F)n([C@H]4CCOC4)c3n2)CC1 [Tanzisertib] (10 µM)
inactive: [1] 0 | [2] 0 | [3] 0 | [4] 0 | [5] 0 | [6] 0 | [7] 0 | [8] 0 | [9] 0 | [10] 0 | [11] 0 | [12] 0 | [13] 0 | [14] 0 | [15] 0 | [16] 0 | [17] 0 | [18] 0 | [19] 0 | [20] 0

Cc1cc2ncc(-c3ccccc3)nc2cc1C (10 µM)
inactive: [1] 0 | [2] 0 | [3] 0 | [4] 0 | [5] 0 | [6] 0 | [7] 0 | [8] 0 | [9] 0 | [10] 0 | [11] 0 | [12] 0 | [13] 0 | [14] 0 | [15] 0 | [16] 0 | [17] 0 | [18] 0 | [19] 0 | [20] 0

CCN1/C(=C/C(C)=O)Sc2ccc(OC)cc21 (10 µM)
inactive: [1] 0 | [2] 0 | [3] 0 | [4] 0 | [5] 0 | [6] 0 | [7] 0 | [8] 0 | [9] 0 | [10] 0 | [11] 0 | [12] 0 | [13] 0 | [14] 0 | [15] 0 | [16] 0 | [17] 0 | [18] 0 | [19] 0 | [20] 0

COc1cc(N2CCC(O)CC2)ccc1Nc1cc(Nc2ccccc2S(=O)(=O)C(C)C)c2cc[nH]c2n1 (10 µM)
inactive: [1] 0 | [2] 0 | [3] 0 | [4] 0 | [5] 0 | [6] 0 | [7] 0 | [8] 0 | [9] 0 | [10] 0 | [11] 0 | [12] 0 | [13] 0 | [14] 0 | [15] 0 | [16] 0 | [17] 0 | [18] 0 | [19] 0 | [20] 0

C=CS(=O)(=O)c1ccc(Nc2nc(OCC3CCCCC3)c3[nH]cnc3n2)cc1 (2.5 µM)
inactive: [1] 0 | [2] 0 | [3] 0 | [4] 0 | [5] 0 | [6] 0 | [7] 0 | [8] 0 | [9] 0 | [10] 0 | [11] 0 | [12] 0 | [13] 0 | [14] 0 | [15] 0 | [16] 0 | [17] 0 | [18] 0 | [19] 0 | [20] 0

CC(=O)Nc1nc2ccc(-c3cnc(C)c(NC(=O)OC4CCCCC4)c3)cc2s1 (10 µM)
inactive: [1] 0 | [2] 0 | [3] 0 | [4] 0 | [5] 0 | [6] 0 | [7] 0 | [8] 0 | [9] 0 | [10] 0 | [11] 0 | [12] 0 | [13] 0 | [14] 0 | [15] 0 | [16] 0 | [17] 0 | [18] 0 | [19] 0 | [20] 0

O=C1NCCCc2c1oc1ccc(O)cc21 (10 µM)
inactive: [1] 0 | [2] 0 | [3] 0 | [4] 0 | [5] 0 | [6] 0 | [7] 0 | [8] 0 | [9] 0 | [10] 0 | [11] 0 | [12] 0 | [13] 0 | [14] 0 | [15] 0 | [16] 0 | [17] 0 | [18] 0 | [19] 0 | [20] 0

O=Nc1c(-c2c(O)[nH]c3ccccc23)[nH]c2ccccc12 [Indirubin-3'-monoxime] (2.5 µM)
inactive: [1] 0 | [2] 0 | [3] 0 | [4] 0 | [5] 0 | [6] 0 | [7] 0 | [8] 0 | [9] 0 | [10] 0 | [11] 0 | [12] 0 | [13] 0 | [14] 0 | [15] 0 | [16] 0 | [17] 0 | [18] 0 | [19] 0 | [20] 0

CCCNC(=O)c1cn2ncnc(Nc3cc(C(=O)NC4CC4)ccc3C)c2c1C (10 µM)
inactive: [1] 0 | [2] 0 | [3] 0 | [4] 0 | [5] 0 | [6] 0 | [7] 0 | [8] 0 | [9] 0 | [10] 0 | [11] 0 | [12] 0 | [13] 0 | [14] 0 | [15] 0 | [16] 0 | [17] 0 | [18] 0 | [19] 0 | [20] 0

COC1(C(=O)N[C@@H](C)c2ccc(-n3cc(F)cn3)nc2)CCC(c2nc(C)cc(Nc3cc(C)[nH]n3)n2)CC1 (stereo partly drawn) [trans-Pralsetinib] (2.5 µM)
inactive: [1] 0 | [2] 0 | [3] 0 | [4] 0 | [5] 0 | [6] 0 | [7] 0 | [8] 0 | [9] 0 | [10] 0 | [11] 0 | [12] 0 | [13] 0 | [14] 0 | [15] 0 | [16] 0 | [17] 0 | [18] 0 | [19] 0 | [20] 0

Cc1cnc(Nc2ccc(N3CCN(C)CC3)cc2)nc1Nc1cccc(S(=O)(=O)NC(C)(C)C)c1 (2.5 µM)
inactive: [1] 0 | [2] 0 | [3] 0 | [4] 0 | [5] 0 | [6] 0 | [7] 0 | [8] 0 | [9] 0 | [10] 0 | [11] 0 | [12] 0 | [13] 0 | [14] 0 | [15] 0 | [16] 0 | [17] 0 | [18] 0 | [19] 0 | [20] 0

For convenience, 2 of the compounds above:
CCCNC(=O)c1cn2ncnc(Nc3cc(C(=O)NC4CC4)ccc3C)c2c1C (10 µM)
inactive: [1] 0 | [2] 0 | [3] 0 | [4] 0 | [5] 0 | [6] 0 | [7] 0 | [8] 0 | [9] 0 | [10] 0 | [11] 0 | [12] 0 | [13] 0 | [14] 0 | [15] 0 | [16] 0 | [17] 0 | [18] 0 | [19] 0 | [20] 0

COC1(C(=O)N[C@@H](C)c2ccc(-n3cc(F)cn3)nc2)CCC(c2nc(C)cc(Nc3cc(C)[nH]n3)n2)CC1 (stereo partly drawn) [trans-Pralsetinib] (2.5 µM)
inactive: [1] 0 | [2] 0 | [3] 0 | [4] 0 | [5] 0 | [6] 0 | [7] 0 | [8] 0 | [9] 0 | [10] 0 | [11] 0 | [12] 0 | [13] 0 | [14] 0 | [15] 0 | [16] 0 | [17] 0 | [18] 0 | [19] 0 | [20] 0
